Measured values as given in article PMC7819943, “Rice protein-binding microarrays: a tool to detect cis-acting elements near promoter regions in rice”.
Some of the results follow.

Amino acid sequences for entries named in this document (tags omitted).
UniProt Q0JBA9, entry or part of it: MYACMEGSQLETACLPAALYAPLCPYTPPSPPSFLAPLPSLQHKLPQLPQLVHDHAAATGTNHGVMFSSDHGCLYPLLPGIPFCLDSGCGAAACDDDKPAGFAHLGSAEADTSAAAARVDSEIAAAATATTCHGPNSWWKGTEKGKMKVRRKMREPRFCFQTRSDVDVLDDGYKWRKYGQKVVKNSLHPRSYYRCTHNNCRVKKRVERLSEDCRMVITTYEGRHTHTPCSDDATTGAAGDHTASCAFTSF

Each sequence was assayed against OsWRKY34 (Oryza sativa, UniProt Q0JBA9 1-250) (assay: protein-binding microarray (RPBM); PBS, 2% BSA, 51.3 ng/ul salmon testes DNA, 50 uM zinc acetate, 200 nM TF, 25 C, 1 h; high values mean tight binding). Details: protein: recombinant; tags: N-terminal polyhistidine and DsRed monomer fusion (pET32a); label: CyDye5-dUTP incorporated in the synthesized complementary strand; 3' TTTTT single-stranded linker to array surface; dsDNA, one strand shown.
Procedure, shortened: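 The binding signal is fluorescence intensity per feature, in arbitrary units, read on an Axon 4000B scanner. Polyhistidine- and DsRed-tagged transcription factors (N-terminal fusions) from E. coli BL21-CodonPlus were purified on Ni–NTA and applied at 200 nM for 1 h at 25 °C to a double-stranded, BSA-blocked custom Agilent array in buffer with 50 µM zinc acetate.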

| Sequence | binding signal |
| --- | --- |
| ATACTATTAATACCTGATCCCACCTGTCATACACACGTTACGGAGTCACCTAGTGCAG | 9500 fluorescence intensity (a.u.) |
| AACCCACACGAGCTACCTATCCATCGTCCTAGCTATCTCACGGAGTCACCTAGTGCAG | 11800 fluorescence intensity (a.u.) |
| CACACACTCGGACACACATCTCCAATCTTGAGCACACAGCCGGAGTCACCTAGTGCAG | 9460 fluorescence intensity (a.u.) |
| AGCCTTCCAGCCGGACAGTTAGTTTCTTTTAGGTCGGTTCCGGAGTCACCTAGTGCAG | 8070 fluorescence intensity (a.u.) |
| TCTCCATTTCTCACATGAGTCTCCTACATAGCGCTTAGCACGGAGTCACCTAGTGCAG | 8540 fluorescence intensity (a.u.) |
| GCTTAGCTGATGAATCTTGACTTTGTTTGCATGTCCTTCCCGGAGTCACCTAGTGCAG | 10800 fluorescence intensity (a.u.) |
| AGTTCTAATTAGTTTCAACTCGTACACGTAATTGCAATAACGGAGTCACCTAGTGCAG | 8300 fluorescence intensity (a.u.) |
| CCAGTATAATCATTGACTTTTGTGTGCTTAATGCATTTTCCGGAGTCACCTAGTGCAG | 11800 fluorescence intensity (a.u.) |
| CCGCCACCACCCCACTCCGACGACCACCTCCGCGCGCTCTCGGAGTCACCTAGTGCAG | 11400 fluorescence intensity (a.u.) |
| TATCCCTCATCTCTGCGCGCCGCCGCCGCCGCCACCTCTCCGGAGTCACCTAGTGCAG | 8270 fluorescence intensity (a.u.) |
| GCCGACCTCGCACGGGCCTCCGCCGCCTCGTCACCGGCCGCGGAGTCACCTAGTGCAG | 9710 fluorescence intensity (a.u.) |
| CTCCAATCCGTTACTCGTTTATTCGTATCTCCTCCCAATTCGGAGTCACCTAGTGCAG | 11800 fluorescence intensity (a.u.) |
| CTTCTTCGATTCCCACGTGGCACACCGACGGCGCGATCAACGGAGTCACCTAGTGCAG | 8140 fluorescence intensity (a.u.) |
| CAAAGTCCGGAATATTGTCGTCTTCCACTTCATCTTCTTCCGGAGTCACCTAGTGCAG | 12700 fluorescence intensity (a.u.) |
| AGCTTTAATTCAACGTCCTAATATTTAATCCGTTTGTTTACGGAGTCACCTAGTGCAG | 8140 fluorescence intensity (a.u.) |
| GCCTGTCACCATCACCTGACCCATATCCCTTCAACTTGCACGGAGTCACCTAGTGCAG | 9610 fluorescence intensity (a.u.) |
| CACCACCAACGCGCTTCTTCTTCACCTCTCCAATCCCCTTCGGAGTCACCTAGTGCAG | 10100 fluorescence intensity (a.u.) |
| ATTTCCTTTTGATTAAATTATAATTTAGTGGATGTTTTTACGGAGTCACCTAGTGCAG | 8380 fluorescence intensity (a.u.) |
| ACAGCTTCTTCCCACGCCGCCGCCGCCGCCTAGCTTCTTCCGGAGTCACCTAGTGCAG | 8880 fluorescence intensity (a.u.) |
| ACCATACTTAAGCTCCACTCCTTTTAGCATTGTCGGAGAACGGAGTCACCTAGTGCAG | 8440 fluorescence intensity (a.u.) |
| TTACTTGGACTCAGTAAGTGGTATTATTATTTATGTTTCTCGGAGTCACCTAGTGCAG | 11000 fluorescence intensity (a.u.) |

| Sequence | binding signal |
| --- | --- |
| TATGTTATTGTTCATGTTTGTCATGCTTTGACCTTGTTCGCGGAGTCACCTAGTGCAG | 8980 fluorescence intensity (a.u.) |
| GAAGACGACATTGCAGTTGTAGTTGGGACCCGCCACACCCCGGAGTCACCTAGTGCAG | 8030 fluorescence intensity (a.u.) |
| TCTGTGGGTTGAGGGAGGTGATTCAATTAGGAGCAAGAAACGGAGTCACCTAGTGCAG | 8940 fluorescence intensity (a.u.) |
| AGCTGTGTTAGGGTGTGTTTGGTTGGTGGGATATACCTGGCGGAGTCACCTAGTGCAG | 8580 fluorescence intensity (a.u.) |
| TTTTTACACTGCCACGTCACTACCCACCCGACACTTAATTCGGAGTCACCTAGTGCAG | 12800 fluorescence intensity (a.u.) |
| CCGGCGACCCGCACCCACCATGGGCTCTTCGCGCGCGCCACGGAGTCACCTAGTGCAG | 8160 fluorescence intensity (a.u.) |
| TCTACTTGGCACCACCACATCGATGCGAGCTAACTAAACACGGAGTCACCTAGTGCAG | 9330 fluorescence intensity (a.u.) |
| GTCCTTTTACTACACTGCATTGCATTTGCACTGTCATTTCCGGAGTCACCTAGTGCAG | 8320 fluorescence intensity (a.u.) |
| CTATTCTCCTTTTTATTTTTTAATATGCCTTCATGTCCGTCGGAGTCACCTAGTGCAG | 8530 fluorescence intensity (a.u.) |
| ATGTATATTTGCTTTAGTTTGTATCATCTTATACTAATATCGGAGTCACCTAGTGCAG | 8610 fluorescence intensity (a.u.) |
| CTGTGCTTTGTTGGGTTTGTCTGCGATGCCGATTCAATTACGGAGTCACCTAGTGCAG | 8840 fluorescence intensity (a.u.) |
| TTATTCCTTTCCAATTTATTCTCCATTGTCTCCTTAGTTTCGGAGTCACCTAGTGCAG | 9340 fluorescence intensity (a.u.) |
| TGCACAGTTCCACCAGACTCCATCGCCATCGCCATCGCCACGGAGTCACCTAGTGCAG | 8480 fluorescence intensity (a.u.) |
| GGGCTATATGTTGCTAGCATTGCAAGCGCACTTGCCTTCACGGAGTCACCTAGTGCAG | 8970 fluorescence intensity (a.u.) |
| CTCCTAATATGATACATAACGCTGAACTACATACACTTATCGGAGTCACCTAGTGCAG | 8220 fluorescence intensity (a.u.) |
| TCCACTTCTCCTCCACACTTCACGGCTCCTTCACTCCTCCCGGAGTCACCTAGTGCAG | 8590 fluorescence intensity (a.u.) |
| GGTTTGTTGCTCCGTGCTTCTACTCTTTCTTCCCCGCAATCGGAGTCACCTAGTGCAG | 8050 fluorescence intensity (a.u.) |
| AATGCACGGGAGGGTGCCGCCTGGCCTTTCCACCGTCGCTCGGAGTCACCTAGTGCAG | 9200 fluorescence intensity (a.u.) |
| TTCTGCTTGGCTGTGGTGGTGGCTGTGGTGGTGGGCAAAGCGGAGTCACCTAGTGCAG | 8670 fluorescence intensity (a.u.) |
| AATTTATTGGGGTGACGTGTATCGGTCGATTAATTTACTTCGGAGTCACCTAGTGCAG | 9420 fluorescence intensity (a.u.) |
| CCCACCGCAATCTCGTTTCGGCTCTCCGGCCCTCTCCTAGCGGAGTCACCTAGTGCAG | 9940 fluorescence intensity (a.u.) |

Shown with bars between the fields: entries from further up.
Sequence | binding signal
AGCCTTCCAGCCGGACAGTTAGTTTCTTTTAGGTCGGTTCCGGAGTCACCTAGTGCAG | 8070 fluorescence intensity (a.u.)
CTGTGCTTTGTTGGGTTTGTCTGCGATGCCGATTCAATTACGGAGTCACCTAGTGCAG | 8840 fluorescence intensity (a.u.)
